These are yes or no findings as the source states them, for the method shown. In cells and extracts the contact can be indirect. Some results given as binding are weak or reduced against the parent protein; the word gives no strength.
Assays:
[1] = target: CYFIP2 (endogenous, Xenopus retinal ganglion cell axons) (Xenopus laevis (endogenous in Xenopus retinal cultures)) (UniProt Q6GQD1); assay: proximity ligation; Duolink in situ PLA on fixed Xenopus retinal explant cultures, endogenous proteins; signal counted in the RGC axon shaft
[2] = target: CYFIP2 (endogenous, Xenopus retinal ganglion cell axons) (Xenopus laevis (endogenous in Xenopus retinal cultures)) (UniProt Q6GQD1); assay: proximity ligation; Duolink in situ PLA on fixed Xenopus retinal explant cultures, endogenous proteins; signal counted in the RGC growth cone (central and peripheral domains)

Protein sequences, listed by entry. Tags and fused reporters are not part of them.
UniProt Q6GQD1: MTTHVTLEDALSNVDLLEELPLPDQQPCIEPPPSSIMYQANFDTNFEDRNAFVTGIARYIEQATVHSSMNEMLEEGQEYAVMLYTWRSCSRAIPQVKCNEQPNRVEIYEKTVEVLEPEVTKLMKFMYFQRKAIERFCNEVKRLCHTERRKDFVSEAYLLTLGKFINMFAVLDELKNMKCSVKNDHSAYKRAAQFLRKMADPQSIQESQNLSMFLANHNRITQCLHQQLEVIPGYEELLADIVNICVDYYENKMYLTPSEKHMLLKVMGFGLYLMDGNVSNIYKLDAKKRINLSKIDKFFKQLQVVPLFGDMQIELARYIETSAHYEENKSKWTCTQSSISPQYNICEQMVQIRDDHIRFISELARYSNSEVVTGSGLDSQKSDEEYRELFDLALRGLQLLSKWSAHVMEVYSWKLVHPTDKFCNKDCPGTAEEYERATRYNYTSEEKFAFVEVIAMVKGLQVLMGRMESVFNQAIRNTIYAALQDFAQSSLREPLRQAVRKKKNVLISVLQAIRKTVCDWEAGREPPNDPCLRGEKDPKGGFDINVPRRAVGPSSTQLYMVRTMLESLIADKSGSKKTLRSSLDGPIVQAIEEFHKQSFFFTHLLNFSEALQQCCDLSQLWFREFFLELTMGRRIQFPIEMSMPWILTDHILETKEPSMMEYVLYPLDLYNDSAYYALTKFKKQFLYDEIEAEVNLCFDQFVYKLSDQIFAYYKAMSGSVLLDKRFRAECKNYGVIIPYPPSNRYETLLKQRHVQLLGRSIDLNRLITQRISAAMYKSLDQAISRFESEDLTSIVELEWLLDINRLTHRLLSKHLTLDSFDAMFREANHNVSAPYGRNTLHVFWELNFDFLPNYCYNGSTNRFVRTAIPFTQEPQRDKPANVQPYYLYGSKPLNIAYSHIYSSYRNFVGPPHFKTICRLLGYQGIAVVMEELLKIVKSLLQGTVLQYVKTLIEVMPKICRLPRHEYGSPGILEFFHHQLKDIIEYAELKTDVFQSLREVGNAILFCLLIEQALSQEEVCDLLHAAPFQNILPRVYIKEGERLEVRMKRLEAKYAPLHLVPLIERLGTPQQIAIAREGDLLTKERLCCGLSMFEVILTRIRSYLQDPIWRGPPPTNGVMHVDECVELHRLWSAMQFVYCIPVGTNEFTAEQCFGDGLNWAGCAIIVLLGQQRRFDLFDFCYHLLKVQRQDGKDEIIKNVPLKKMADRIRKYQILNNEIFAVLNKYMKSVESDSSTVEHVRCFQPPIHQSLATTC

binding [1]: binds weakly
binding [2]: binds
B1: NCKAP1 (protein, UniProt Q640K3 1-1128)
chain: MSRSVLQPSQQKLAEKLTILNDRGVGMLTRLYNIKKACGDPKAKPSYLIDKNLESAVKFIVRKFPAVETRNNNQQLAQLQKEKSEILKNLALYYFTFVDVMEFKDHVCELLNTIDVCQVFLDITVNFDLTKNYLDLIVTYTTLMIMLSRIEERKAIIGLYNYSHEMTHGASDREYPRLGQMIVDYENPLKKMMEEFVPHSKSLSDALISLQMVYPRRNLSAEQWRNAQLLSLISAPSTMLNPAQSDTMPCEYLSLDTMEKWIILGFILCHGILNTDATSLNLWKLALQSSSCICLYRDEVLHFHKAAEDLFVNIRGYNKRINDIRECKENAVSHAGATHRERRKFLRSALKELATVLSDQPGLLGPKALFVFMALSFARDEIIWLLRHADNIPKKIADDFMDKHIAELIFYMEELRAHVRKYGPVMQRYYVQYLSGFDAVVLNELVQNLSVCPEDESIIMSSFVNTMTSLSVKQVEDGEVFDFRGMRLDWFRLQAYTSVSKASLSLTDHRELGKMMNTIIFHTKMVDSLVEMLVETSDLSIFCFYSRAFEKMFQQCLELPSQSRYSISFPLLCTHFMSCTHELCPEERHHIGDRSLSLCNMFLDEMAKQARNLITDICTEQCTLSDQLLPKHCAKTISQAVNKKSKKQTGKKGEPEREKPGVESMRKNRLVVTNLDKLHTALSELCFSINYAPNMVVWEHTFTPREYLTSHLEIRFTKSIVGMTMYNQVTQEIAKPSELLTSVRAYMTVLQSIENYVQIDITRVFNNVLLQQTQHLDSHGEPTITSLYTNWYLETLLRQVSNGHIAYFPAMKAFVNLPTENELTFNAEEYSDISEMRALSELLGPYGMKFLSESLMWHISSQVAELKKLVVENVEVLTQMRTSFDKPEQMAAFFKRLTSVDSVLKRMTIIGVILSFRSLAQEALKDVLSYHIPFLVSSVEDFKDHIPRETDMKVAMNVYELSSAAGLPCEIDPALVVALSSQKSETISPEEEYKIACLLMVFVAVSLPTLASNVMSQYSPAIEGHCNNIHCLAKAINQIAAALFTIHKGSIEDRLKEFLALASSSLLKIGQETDKTTTRNRESVYLLLDMIVQESPFLTMDLLESCFPYVLLRNAYHAVYKQSVTSSS

From paper PMC5855093
